## Primary screen of a compound library

Protein sequences, listed by entry. Tags and fused reporters are not part of them.
UniProt E9BF75, entry or part of it: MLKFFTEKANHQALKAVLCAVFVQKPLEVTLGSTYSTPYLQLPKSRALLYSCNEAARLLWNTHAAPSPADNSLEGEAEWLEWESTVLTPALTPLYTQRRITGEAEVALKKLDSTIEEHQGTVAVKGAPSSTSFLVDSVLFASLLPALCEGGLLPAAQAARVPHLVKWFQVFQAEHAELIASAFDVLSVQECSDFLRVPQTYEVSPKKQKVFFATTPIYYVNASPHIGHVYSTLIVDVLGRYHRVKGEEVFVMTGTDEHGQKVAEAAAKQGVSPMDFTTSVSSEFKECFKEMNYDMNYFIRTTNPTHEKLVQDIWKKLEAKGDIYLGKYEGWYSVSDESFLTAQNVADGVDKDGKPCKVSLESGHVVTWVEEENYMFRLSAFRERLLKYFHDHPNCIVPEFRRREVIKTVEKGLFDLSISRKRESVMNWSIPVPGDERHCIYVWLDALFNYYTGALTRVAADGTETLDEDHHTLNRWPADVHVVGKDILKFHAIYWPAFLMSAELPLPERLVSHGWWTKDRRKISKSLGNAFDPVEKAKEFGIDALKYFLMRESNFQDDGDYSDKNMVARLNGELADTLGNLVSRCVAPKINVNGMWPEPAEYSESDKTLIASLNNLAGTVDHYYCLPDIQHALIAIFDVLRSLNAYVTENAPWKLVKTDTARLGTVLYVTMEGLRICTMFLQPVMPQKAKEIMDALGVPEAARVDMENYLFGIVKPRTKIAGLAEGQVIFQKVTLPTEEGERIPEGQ

Results are percentages, as filed.
How 0% and 100% were set is not recorded. Most values in the screen are low, and negative values occur.
This is an unselected part of the compounds tested.
A dash means the value is not listed here; it may have been measured.

Mtb heat-shock: 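Assay on Mycobacterium tuberculosis, filed only as a heat shock assay from Cornell; the read-out is not stated. The concentration is filed as 10 mM, unlikely as a test dose, so the dose is not known. The record gives no direction; compounds that gave an IC50 in retests scored well above the rest, so higher reads as stronger inhibition. Size under these conditions: about 69,000 compounds, about 930 of them at 50% or above in at least one test.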
LdMetRS: 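Methionyl-tRNA synthetase (putative), Leishmania donovani (UniProt E9BF75). Primary screen of methionyl-tRNA synthetase; the read-out is not stated. The test concentration is not given. The values are filed as inhibition. About 68,000 compounds were tested under these conditions; 0.035% (about 24) showed 50% or more at least once.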
Mtb growth Cornell: 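Whole-cell assay for inhibitors of Mycobacterium tuberculosis growth, labelled Cornell in the record; the read-out is not stated. The concentration is filed as 10 mM, unlikely as a test dose, so the dose is not known. The record gives no direction; compounds strong in two other growth screens of this library score well above the rest, so higher reads as stronger inhibition. About 53,000 compounds were tested under these conditions; 1.7% (about 900) showed 50% or more at least once.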

structure	Mtb heat-shock	LdMetRS	Mtb growth Cornell
O=C(C1CC1)N1CCCC(c2nc(O)cc(-c3ccncc3)n2)C1 (stereo not drawn)	-5.198%	8.854%	-15.09%
CCOC(C)c1noc(CN2CCN(Cc3cccnc3)CC2)n1 (stereo not drawn)	-17.44%	2.448%	-25.39%
Cc1noc(C)c1CN(C)C(=O)C1CCCN1S(N)(=O)=O (stereo not drawn)	-52.64%	5.645%	-56.28%
O=C(c1ccco1)N1CC[C@@H]2O[C@H](COCCN3CCCC3)CC[C@@H]21	-	8.667%	-
O=C1CCN(CCS(=O)(=O)c2ccc(Cl)cc2)CCN1	-17.77%	7.107%	-
CCn1cnnc1CNC(=O)N(C)Cc1ccc2c(c1)OCO2	-12.11%	19.94%	-3.926%
Cc1cc(CN2CCCC2c2c(C)nn(C)c2Cl)on1 (stereo not drawn)	-0.8612%	6.857%	6.208%
NC(=O)c1cc(C2CCCN(Cc3ccc4c(c3)OCCO4)C2)n[nH]1 (stereo not drawn)	-3.486%	14.24%	-11.47%
CN(C)CCNc1cc(-c2ncccc2C(F)(F)F)c2cc[nH]c2n1	-3.103%	10.12%	-6.032%
COc1ncccc1CNC(=O)c1c(C)oc(C)c1C	6.015%	15.79%	-
Cn1cc(C(=O)N2CCN(c3ccc(F)cc3)CC2)ccc1=O	-5.186%	13.92%	-
Cc1cc(C)n(CCCN(C)C(=O)CN2CC3(CCNCC3)OC2=O)n1	-2.466%	15.25%	21.93%
Cc1ccccc1CN(C)C(C(N)=O)c1ccccc1 (stereo not drawn)	-9.919%	7.186%	-10.03%
OCC1CCCN1c1cc(NCCc2nccs2)ncn1 (stereo not drawn)	10.48%	12.72%	27.09%
OC(CN(Cc1ccccc1)Cc1ccon1)c1ccco1 (stereo not drawn)	-0.4618%	4.696%	-
O=C(N1CCOCC1)N1CCOC[C@H](Oc2ccc(C(F)(F)F)cc2)C1	-19.6%	16.61%	-2.509%
[H][C@]12CCC[C@@]1(COCc1cccnc1)CN(C(=O)c1ccc(C)s1)C2	1.72%	-	7.724%
COc1cccc(F)c1C(C)NC(=O)NCCc1ccc(C)nc1 (stereo not drawn)	-0.02998%	15.85%	-6.238%
CN1CCOC(C(=O)N2CCC3(CCCC3)CC2)C1 (stereo not drawn)	-31.69%	13.42%	-
c1cnn(CCNCc2nnc(C3CC3)o2)c1	12.59%	7.042%	-23.11%
CCN1CCCC(O)(CN(C)Cc2ccc(C)o2)C1 (stereo not drawn)	11.02%	9.474%	0.8951%
Cc1oc(-c2ccccc2)nc1C(=O)NC1=NCCS1	105.4%	13.04%	46.67%
Cc1ccc(CN2Cc3nnn(C)c3C(COCCN(C)C)C2)s1.O=C(O)C(F)(F)F.O=C(O)C(F)(F)F (stereo not drawn)	-10.47%	-	7.314%
O=C(O)C(F)(F)F.O=C(O)C(F)(F)F.O=C(O)C(F)(F)F.[H][C@@]12C[C@@H](OCc3cccc(C)n3)CN1CCN(c1ncccn1)C2	-27.98%	-	34.8%
CN(C)c1nccc(C2CCCN2S(=O)(=O)c2cn(C)cn2)n1 (stereo not drawn)	-9.112%	14.19%	-3.917%
Cc1ncc2c(n1)CN(CC(=O)Nc1nccs1)CC2	-1.053%	12.57%	-24.8%
Cc1cc(S(=O)(=O)N2CCC(S(C)(=O)=O)C2)ccc1F (stereo not drawn)	11.08%	10.7%	8.337%
O=S(=O)(NCC1(O)CCOc2ccccc21)c1ccc(Cl)s1 (stereo not drawn)	-1.421%	15.73%	32.47%
CCn1ccnc1CN1CCCN(C(=O)Cc2ccc(F)cc2)CC1	-56.2%	10.93%	-
CNc1cccc(C2CCCN(C(=O)c3cncs3)C2)n1 (stereo not drawn)	-11.77%	15.82%	18.67%
CC(C)C1CN(C(=O)c2cc(F)cc3[nH]cnc23)CCS1 (stereo not drawn)	-2.888%	18.06%	37.76%
Cn1c(C2CC2)nc2c1CCN(CC(=O)NC1CCCCNC1=O)C2 (stereo not drawn)	2.92%	15.32%	28.05%
CO[C@H]1C[C@@H]2CN(C(=O)c3n[nH]c4c3CCCC4)C[C@@H]2C1	-	4.127%	-
[H][C@]12C[C@@H](CNC(=O)c3ccsc3)O[C@]1([H])CN(C(=O)CO)C2	-26.5%	-	-21.6%
COC(=O)C(C)N(Cc1cc(=O)n(C)c(=O)n1C)C1CC1 (stereo not drawn)	-39.41%	-1.95%	-
COc1ccc(CNC(C)c2cnn(C)c2)cc1OC1CCCC1 (stereo not drawn)	-3.487%	4.444%	9.224%
Cn1ccnc1CN1CCC2(CC(=O)N(c3ccccn3)C2)C1 (stereo not drawn)	-	3.846%	-
CC(C)(C)c1ccc(C2(C(=O)NCCS(N)(=O)=O)CC2)cc1	-21.18%	9.449%	40.65%
CC(C)C(=O)N1CCCC2(CCCN2Cc2cccnc2)C1 (stereo not drawn)	14.66%	11.68%	-10.16%
CCC(C)(C)NC(=O)c1ncn2c1CN(C)S(=O)(=O)c1ccccc1-2	-	11.04%	-
COc1ccc(CCN2CC(c3nc(CSC)no3)CCC2=O)cc1 (stereo not drawn)	-11.34%	9.497%	-17.45%
CC(Cn1ccnc1)NC(=O)C1(c2ccc3c(c2)OCCO3)CCCC1 (stereo not drawn)	11.96%	2.347%	-24.91%
CN(CCn1cnnc1)C(=O)c1ccnc(OC2CCC2)c1	14.61%	11.96%	-41.19%
COCCN1CCn2cc(CNC(=O)c3cnn(C)c3)nc2C1.O=C(O)C(F)(F)F	-31.84%	-	-14.88%
O=C(O)C(F)(F)F.[H][C@@]12CN(Cc3ccc(F)cc3)C[C@H](C(=O)N3CCCO3)[C@]1([H])CCO2	-46.82%	-	13.78%
O=C(Cn1cc(C(=O)O)ccc1=O)Nc1ccc(F)cc1Cl	-8.798%	8.714%	-
Cc1cnn(C2CCCN(C(=O)Cc3ccc(-n4cccn4)cc3)C2)c1 (stereo not drawn)	-16.26%	11.19%	-
Cc1ccc(F)cc1-c1ccc(N)nc1	-19.62%	6.849%	-12.96%
Cc1c[nH]c(CN2CCOC(c3ccc(Cl)cc3)C2)c(C)c1=O (stereo not drawn)	-10.82%	6.361%	10.58%
CNC(=O)CC1CCN(C(=O)Nc2ccc(-c3cc[nH]n3)cc2)CC1	20.51%	9.669%	-
Cc1n[nH]c(CN2CCN(c3ncnc4scc(C)c34)CC2)c1Cl	8.884%	14.09%	-
Cc1cnn(C(C)C(=O)NCC2CCN(c3cnn(C)c(=O)c3)CC2)c1 (stereo not drawn)	-14.94%	19.15%	-3.739%
CC1(Cc2ccc(Cl)cc2)Cc2cc(CCC(=O)O)ccc2O1 (stereo not drawn)	8.776%	0%	25.47%
c1ccc(N2CC[C@H](OCC3CC3)[C@@H]2Cc2cccnc2)nc1	-	4.396%	-
COc1cccc(NC(=O)NCC2CCCN(C3CCOCC3)C2)c1 (stereo not drawn)	-9.933%	8.672%	-9.956%
N#Cc1ccc(CCC(=O)N2CCC(CN3CCOCC3)CC2)cc1	3.097%	8.709%	-26.46%
CC(C)NC(=O)c1cc(-c2ccc(S(C)(=O)=O)cc2)c2cnn(C)c2n1	-0.5981%	5.714%	-
CN(CCO)Cc1nnc(C2CCN(C3CCCCC3)CC2)n1C	-4.805%	15.61%	16.97%
CC(C)Cc1ncc2c(n1)CN(c1cc(NCCO)nc(N)n1)C2	-1.312%	7.563%	-
Cc1nc(C2CCCN2CC(=O)NCCOc2ccc(F)cc2)no1 (stereo not drawn)	-29.9%	8.947%	-

Some entries from above, unchanged:

{"structure": "Cc1noc(C)c1CN(C)C(=O)C1CCCN1S(N)(=O)=O", "stereo": "stereo not drawn", "Mtb heat-shock": -52.64, "LdMetRS": 5.645, "Mtb growth Cornell": -56.28}
{"structure": "Cc1cnn(C2CCCN(C(=O)Cc3ccc(-n4cccn4)cc3)C2)c1", "stereo": "stereo not drawn", "Mtb heat-shock": -16.26, "LdMetRS": 11.19}
{"structure": "Cc1ccc(F)cc1-c1ccc(N)nc1", "Mtb heat-shock": -19.62, "LdMetRS": 6.849, "Mtb growth Cornell": -12.96}
{"structure": "CNC(=O)CC1CCN(C(=O)Nc2ccc(-c3cc[nH]n3)cc2)CC1", "Mtb heat-shock": 20.51, "LdMetRS": 9.669}
{"structure": "Cc1ncc2c(n1)CN(CC(=O)Nc1nccs1)CC2", "Mtb heat-shock": -1.053, "LdMetRS": 12.57, "Mtb growth Cornell": -24.8}
{"structure": "Cn1ccnc1CN1CCC2(CC(=O)N(c3ccccn3)C2)C1", "stereo": "stereo not drawn", "LdMetRS": 3.846}

The values are deposited in ChEMBL (CHEMBL3988442, “University of Dundee, Small-Polar-MMV Screening Library” (2021)).